From patent US20150232562A1 (Ablynx, published 2015)
No constants are given. Whether binding was seen depends on the method and setting. Some results given as binding are weak or reduced against the parent protein; the word gives no strength.

What follows are binders tested against T1, recombinant human ErbB2/Fc chimera (human, UniProt P04626 23-652) (assay: ELISA, coated ErbB2/Fc).
T1 construct: bought from R&D Systems; also called rhErbB2-Fc; rhErb2-Fc; Fc part of the bought chimera not given; not described

binding	Binder
binds	17H4 (VHH, C-term myc-His6 tag) VHH: EVQLVESGGGLVQPGGSLRLSCVASGFSLINYAMTWVRQAPGKGLEWVSSINWSGTHTDYADSVKGRFTISRDNAKNTLFLHMNNLSPEDTAVYYCGQGWKIHPADRGGHGTQVTVSS
binds	38C6 (VHH, C-term myc-His6 tag) VHH: EVQLVESGGGLVQPGGSLRLSCVGSGFSLDDYAMTWVRQAPGKGLEWVSSINWSGTHTDYADSVKGRFTISRDNAKNTLFLQMNSLSPEDTAVYYCNQGWKIRPTIPMGHGTQVTVSS
binds	2A5 (VHH, C-term myc-His6 tag) VHH: EVQLVESGGGLVQPGGSLRLSCATSGFTFDDYAMTWVRQAPGKGLEWVSSINWSGTHTDYTDSVKGRFTISRNNANNTLYLQMNSLKSEDTAVYYCAKNWGDAGTTWFEKSGSAGQGTQVTVSS
binds	17E10 (VHH, C-term myc-His6 tag) VHH: EVQLVESGGSLVQPGGSLRLSCAASGFTFDDYAMTWVRQAPGKGLEWVSSINWSGTHTDCTDSVKGRFTISRNNANNTLYLQMNSLKSEDTAVYYCAKNWGDAGTTWFEKSGSAGQGTQVTVSS
binds	17E7 (VHH, C-term myc-His6 tag) VHH: EVQLVESGGSLVQPGGSLRLSCAASGFTFDDYAMSWVRQVPGKGLEWVSSINWSGTHTDYADSVKGRFTISRNNANNTLYLQMNSLKSEDTAVYYCAKNWRDAGTTWFEKSGSAGQGTQVTVSS
binds	17D8 (VHH, C-term myc-His6 tag) VHH: EVQLVESGGSLVPPGGSLRLSCAVSGFTFDDYAMSWVRQAPGKGLEWVSSINWSGTHTDYTDSVKGRFTISRNNANNMLYLQMNSLKSEDTAVYYCAKNWRDAGTTWFEKSGSAGQGTQVTVSS
binds	2F3 (VHH, C-term myc-His6 tag) VHH: EVQLVESGGSLVQPGGSLRLSCAASGFTFDDYAMTWVRQAPGKGLEWVSSINWSGTHTDYTGSVKGRFTISRNNANNTLYLQMNSLKSDDTAVYYCAKNWGDAGTTWFEKSGSAGPGTQVTVSS
binds	17D11 (VHH) VHH: EVQLVESGGGLVQAGGSLRLSCTASGRTSSTSAMGWFRQAPGKEREFVATISRGGSATYYADSLKGRFTISRDNAKNTLYLQMNSLKPEDTAVYYCAARRSSLYTSSNVFEYDYWGQGTQVTVSS
binds	15E11 (VHH) VHH: EVQLVESGGGLVQAGGSLRLSCVASRIPFSSRTMAWYRQAPGKQRDWVATISARGMPAYEDSVKGRFTVSRDNDKNTLYLQMNSLKPEDTAVYYCRDVNADYWGQGTQVTVSS
binds	5G4 (VHH, C-term myc-His6 tag) VHH: EVQLVESGGGLVQPGGSLTLSCAGSGFIFDDYAMSWVRQAPGKGLEWVSSINWSGSHRNYADSVKGRFTISRDNAKKTLYLQMNSLKSEDTAVYYCATGWQSTTKNQNYWGQGTQVTVSS
binds	15G7 (VHH, C-term myc-His6 tag) VHH: EVQLVESGGGLVQPGGSLRLSCAASGFIFDDYAMSWVRQAPGKGLEWVSAINWSGTHRNYADSVKGRFTISRDNNKKTVYLQMNSLKSEDTAVYYCATGWQSTTKNQGYWGQGTQVTVSS
binds	15B7 (VHH, C-term myc-His6 tag) VHH: EVQLVESGGGLVQPGGSLKLSCAASGFIFDDYAMSWVRQAPGKGLEWVSAINWSGSHRNYADSVKGRFTISRDNAKKTVYLQMNSLQSEDTAVYYCGTGWQSTTKSQGYWGQGTQVTVSS
binds	15E12 (VHH) VHH: EVQLMESGGGLVQAGGSLRLSCAANGLTFRRYDMGWYRQAPGQQREWVAAISGAGDINYADSVKGRFTMARDNANHTVHLQMNSLKPEDTAVYYCNANWKMLLGVENDYWGQGTQVTVSS
binds	15G8 (VHH, C-term myc-His6 tag) VHH: EVQLVESGGGLVQPGGSLKLSCVASGFSLDDYGMTWVRQAPGKGLEWVSSINWNGTHTDYAYSVKGRFTISRDNAKNTLFLQMNSLTPENTAVYYCNQGWKILPAERRGHGTQVTVSS
